Screening data, single-dose tests

Sequences of proteins named here, by UniProt entry; tags and fusion partners are left off.
UniProt P9WPC5, whole entry: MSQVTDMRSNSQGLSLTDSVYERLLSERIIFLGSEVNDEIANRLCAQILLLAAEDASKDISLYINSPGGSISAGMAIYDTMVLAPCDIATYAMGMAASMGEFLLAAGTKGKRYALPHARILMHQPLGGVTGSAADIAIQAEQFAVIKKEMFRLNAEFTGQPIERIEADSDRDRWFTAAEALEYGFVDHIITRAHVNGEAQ
UniProt P9WPC3, whole entry partner: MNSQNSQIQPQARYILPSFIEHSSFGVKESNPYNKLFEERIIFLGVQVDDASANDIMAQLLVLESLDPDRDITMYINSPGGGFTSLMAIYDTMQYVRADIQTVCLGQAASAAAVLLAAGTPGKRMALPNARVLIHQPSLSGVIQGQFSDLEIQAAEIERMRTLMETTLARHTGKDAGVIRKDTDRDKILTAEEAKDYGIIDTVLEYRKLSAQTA

Each number is a percent effect as filed. How 0% and 100% were set is not recorded. Most values in the screen are low, and negative values occur. This is an unselected part of the compounds tested. A dash means the value is not listed here; it may have been measured.

A: 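Assay of Toxoplasma gondii numbers, read through their beta-galactosidase reporter with a colour substrate. Compounds at 10 µM. The record gives no direction; the compounds picked for IC50 retests had high values, so higher reads as fewer parasites. Size under these conditions: about 67,000 compounds, about 260 of them at 50% or above in at least one test.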
B: 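Protease assay of ClpP1P2, read by the AMC dye that it sets free. Target: ClpP1P2, Mycobacterium tuberculosis (UniProt P9WPC5 and UniProt P9WPC3). Tested at 50 µM. Direction is inferred from only a few compounds that gave an IC50; most scored high, so higher reads as stronger inhibition. Most other retested compounds had strongly negative values. Size under these conditions: about 69,000 compounds, about 10 of them at 50% or above in at least one test.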

SMILES	A	B
O=C(Nc1ccccc1F)NC1(CO)CCOCC1	-9.644%	-6.214%
CC(C#N)CSc1ccccc1NCC(=O)Nc1ccc(F)cc1 (stereo not given)	0%	-6.758%
Cn1ccnc1CN1CCC(CCC(=O)Nc2ccccc2Cl)CC1	-1.025%	-9.141%
O=C(N1CCOCC1)N1CCc2ncnc(Oc3cccnc3)c2CC1.O=C(O)C(F)(F)F	3.448%	-
CC(=O)c1ccc(CN2CCCC23CCN(c2ccccn2)CC3)cc1	-23.1%	-1.605%
NC(=O)C1CCN(c2cncc(-n3cccn3)n2)CC1	-2.197%	-13.86%
NC(=O)C1CCCN(Cc2c(-c3ccco3)[nH]c3ncccc23)C1 (stereo not given)	-3.908%	6.108%
Cc1cccc(CN2CCCC(O)(CNCc3cccc(F)c3)C2=O)c1 (stereo not given)	1.441%	-9.365%
CN(C)CCNc1cc(-c2ncccc2Cl)c2cc[nH]c2n1	-36.06%	-0.9695%
Nc1cc2c(nn1)CCN(C(=O)CCCC1CCCCC1)C2	-1.174%	-6.594%
O=C1CC(c2ccc3ccccc3n2)c2c(n[nH]c2C2CCC2)N1 (stereo not given)	13.49%	21.33%
O=C(c1cccc(F)c1)N1CCCN(Cc2cscn2)CC1	48.38%	7.244%
COc1ccccc1OC1CN(Cc2ccc(C(=O)O)cc2)C1	-1.805%	-0.3109%
[H][C@@]12CS(=O)(=O)C[C@]1([H])N(S(=O)(=O)c1cn(C)cn1)CCN2CC=C(C)C	6.923%	-
Cc1n[nH]c(C)c1CNCC(O)c1cccc(Cl)c1 (stereo not given)	-	5.942%
CN1CC(C(=O)N(C)Cc2cc(-c3cccnc3)no2)NC1=O (stereo not given)	0%	1.69%
CCn1cnnc1C1CCN(C(=O)c2ccc(OC(C)C)nc2)CC1	21.42%	-3.444%
O=C(C1CCN(c2snc3ccccc23)CC1)N1CCCCCC1	-2.868%	29.9%
COc1ccc(CCNC(C)c2ccc3[nH]c(=O)[nH]c3c2)cc1OC (stereo not given)	6.357%	-5.129%
O=C(CN1CCCCCC1=O)NC1CCc2nccn2C1 (stereo not given)	-3.101%	8.538%
CCC(O)CN1CCN(C(=O)c2cccn2Cc2cccs2)CC1 (stereo not given)	-	1.485%
CN1CCCN(c2nccc(-c3c[nH]c4ccc(Br)cc34)n2)CC1	20.93%	-4.183%
CCc1n[nH]c(C2CN(C(=O)COCC(F)(F)F)CCO2)n1 (stereo not given)	12.94%	-19.97%
NC(=O)c1cnn2c1NCC(CNC1(c3ccccc3)CCC1)C2 (stereo not given)	-9.858%	7.681%
CC(C)n1ccc(CN2CCN(c3cc(NC4CC4)nc(N)n3)CC2)c1	0.9377%	-12.74%
COc1ccc(C2CCCN2C(=O)c2ccnc(NC3CC3)c2)cc1 (stereo not given)	-22.1%	7.504%
N#Cc1ccsc1C(=O)N1CCCCC1Cn1cccn1 (stereo not given)	-23.36%	-1.346%
CC(C)(C)C(=O)N1CCCc2c(cnn2-c2ccccc2)C1	-1.352%	-8.11%
CC(C)n1nc(CN2CCCC2)c2c1CN(CC1CC1)CC2	-	11.4%
CC(=O)N1CCC2(CC1)CC(Oc1ccccc1)CO2 (stereo not given)	-23.15%	-5.414%
CC(NC(=O)NCc1ccccc1)(C(=O)O)c1ccco1 (stereo not given)	-6.105%	-3.976%
CCOc1cc2c(cc1CNC(Cc1cccs1)c1nccs1)OCO2 (stereo not given)	-	-16.25%
Cc1ccc(C(=O)O)cc1S(=O)(=O)N(CC(C)O)c1ccccc1 (stereo not given)	0.1142%	5.693%
CC(C)CCCC(C)NC(=O)c1ccc(OCC(N)=O)cc1 (stereo not given)	-1.011%	-8.034%
CCc1nnc(CN2CCC3(CC2)Nc2ccccc2NC3=O)o1	-15.11%	8.241%
Cn1ncc2ccc(C3CCCN(Cc4ccsc4)C3)nc21 (stereo not given)	-7.328%	-23.18%
O=C(NCc1nnc2n1CCCC2)c1ccc(C2CCCO2)s1 (stereo not given)	23.6%	1.45%
Cc1nc(C)c(CN2CCOC(CNc3cccnn3)C2)s1 (stereo not given)	-48.53%	8.516%
CCn1c(NCC2CCCO2)nc2c(C)nn(C)c2c1=O (stereo not given)	22.67%	4.877%
Cc1n[nH]c(C)c1Sc1ccccc1NC(=O)CN1CCCC1	5.361%	-7.711%
CS(=O)(=O)CCNCc1ccc(OCc2ccccn2)cc1	-6.327%	8.456%
CCCNC(=O)CCC(=O)N1CCC(c2noc3cc(F)ccc23)CC1	-53.01%	-8.777%
CC(C)(C)c1cc(NC(=O)CN2CCCC2Cn2cccn2)on1 (stereo not given)	8.514%	-15.79%
COCC1c2c(cnn2CC2CC2)CCN1Cc1cc(C)on1.O=C(O)C(F)(F)F.O=C(O)C(F)(F)F (stereo not given)	7.298%	-
Cn1ccnc1C(=O)NCc1cnc2n1CCN(CC1CC1)CC2	-	0.4094%
O=C(NC[C@@H]1C[C@@H]2CN(C(=O)CO)C[C@H]2O1)c1ccsc1	-	-8.567%
COc1cccc(COC(C)C(=O)N(C)Cc2nnc3n2CCC3)c1 (stereo not given)	1.58%	-0.8777%
CCCC1SCCN1C(=O)c1ccc(-n2ncc(C#N)c2N)cc1 (stereo not given)	-2.412%	5.832%

2 of the entries, repeated:

* CN1CCCN(c2nccc(-c3c[nH]c4ccc(Br)cc34)n2)CC1 : A: 20.93%; B: -4.183%
* Cn1ccnc1C(=O)NCc1cnc2n1CCN(CC1CC1)CC2 : B: 0.4094%

The values are deposited in ChEMBL (CHEMBL3988442, “University of Dundee, Small-Polar-MMV Screening Library” (2021)).